From patent publication US20210347873A1 (SHANGHAI PHARMAEXPLORER, published 2021)
These are yes or no findings as the source states them, for the method shown. Some binding calls cover weakened binding; strength is not graded here.

By UniProt entry, the sequences of proteins in these tests, tags left out. Where a name states a change or a piece, a line headed by the entry shows the natural chain unless it says otherwise.
UniProt Q9Y275: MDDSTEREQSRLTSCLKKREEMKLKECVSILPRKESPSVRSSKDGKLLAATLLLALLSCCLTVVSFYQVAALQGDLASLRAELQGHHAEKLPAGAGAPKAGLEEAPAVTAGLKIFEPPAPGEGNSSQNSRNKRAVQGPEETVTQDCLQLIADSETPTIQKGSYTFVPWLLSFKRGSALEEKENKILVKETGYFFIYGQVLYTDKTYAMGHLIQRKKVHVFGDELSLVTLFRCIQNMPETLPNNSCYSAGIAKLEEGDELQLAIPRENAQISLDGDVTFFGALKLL

B1: 8E7D9C7F5 (antibody, V domains shown)
VH: QVQLQQSGVELARPGASVKLSCKASGYTFTSYGISWVKQRTGQALEWIGEIYPRSGNTYYNEKFKGKATLTADKSSSTAYMELRSLTSEDSAVYFCARSGPITTLVATDYGMDYWGQGTSVTVSS
VL: DIVLTQSPASLAVSLGQRATISCRASKSVSTSSYSYMHWYQQKPGQPPKLLIKFASNLESGVPARFSGSGSGTDFTLNIHPVEEEDAATYYCQHSREFPYTFGGGTKLEIK
B2: L1D12 (antibody, human IgG1, V domains shown)
VH: QVQLVQSGGGLVQPGGSLRLSCAASGFTVSSNYMSWVRQAPGKGLEWVSVIYSGGSTYYADSVKGRFTISRDNSKNTLYLQMNSLRAEDTAVYYCARGFHDILTGYGMDVWGQGTTVTVSS
VL: SSELTQDPAVSVALGQTVRITCQGDSLRNYYAGWYQQKPGQAPVLVIYGKNNRPSGIPDRFSGSSSGNTASLTITGTQAEDEADYYCSSRDNSGTHLVEFGGGTKLTVL
B3: 35E6F7C3 (antibody, V domains shown)
VH: EVQLQQSGAELVKPGASVKLSCTAAGFNIQDTYIHWVKQRPEQGLEWIGRIDPANANTVYDPKFQGKATITADTSSNTAYLQVSSLTSEDTAVYYCASPVITAGFAYWGQGTLVTVSA
VL: QIVLTQSPAIMSASPGEKVTMTCGASSSVNYVHWYQQKSGTSPKRWIYDTSKLASGVPARFSGSGSGTSYSLTISSMEAEDAATYYCQQWTRSPLTFGAGTKVELK
B4: 111D10D6G3 (antibody, V domains shown)
VH: QVQLQQPGAELVKPGASVKMSCKASGYTFTRHWITWVKQRPGQGLEWIGDIFPGSGSINYNEKFKSEATLTVEKSSSTAYMQLSSLTSEDSAVYYCARGDVDVWGTGTTVTVSS
VL: DIQMTQSPSSLSASLGERVSLTCRASQEIRGYLSWLQQKPNGTIKRLIYAASTLDSGVPKRFSATRSGSDFSLTISSLESEDFADYYCLQYASYPFTFGSGTKLEIK
B5: 97E7B3F2 (antibody, V domains shown)
VH: EVQLQQSGPELVKSGASVKISCKASGYTFTDHKMHWVKQSHGKSLEWIGYISPYNGGTGYNQKFKSKVTLTVDISSSTAYMELRSLTSEDSAVYYCARWGFYDVMDSWGQGTSVTVSS
VL: DVLLTQTPLSLPVSLGDQASISCRSSQTIVHIIGDTYLEWYLQKPGQSPKLLIYKVSNRFSGVPDRFSGSGAGTDFTLKISRVEAEDLGVYYCFQGSHVPRTFGGGTKLEIK
B6: 93C6F10D3 (antibody, V domains shown)
VH: EVQLVESGGGLVTPGGSLKLSCVASGFAFSTYGMSWVRQTPERRLEWVAYISGGGGSIYYPDSVKGRFTISRDNAKNILYLQMSSLKSEDTAMYHCTRHPDLLLRYDYALDHWGQGTSVTVSS
VL: DIQMTQSPASLSASVGETVTITCRASENIHIYLAWYQQKQGKSPQLLVYNGKTLADGVPSRFSGSGSGTQYSLKINTLQPEDFGNYYCQHFWNSTWTFGGGTKLEIK
B7: 67A2E1D10 (antibody, V domains shown)
VH: EVQLQQSGAELVKPGASVKLSCTASGFNIKNYYMHWVKQRTEEGLEWIGRIDPEDGETKYAPKFQAKATITADTSSNTAYLQLSSLTSEDTAVYFCARKGYYGNYGAWFAYWGQGTLVTVSA
VL: DIQMTQSPASLSVSVGETVTITCRASEDLYSNLAWYQQKQGKSPQLLVYAATFLADGVPSRFSGSGSGTQYSLKINSLQSEDFGNYYCQHFWGTPPTFGGGTKLEIK
B8: 97A3C2H4 (antibody, V domains shown)
VH: EVKLVESGGGLVQPGGSLKLSCAASGFTFSTYTMSWVRQTPEKRLEWVAYISYGGGSTSYPDTVKGRFTISRDNAKNTLYLQMSSLKSEDTAIYYCTRHVTVVENSMDYWGQGTSVTVSS
VL: DILLTQSPDILSVSPGERVSFSCRASQSIGTSIHWYQQRTNGSPRLLIKYVSESFSGTPSRFSGSGSGTAFTLTINSVESEDIADYYCQQTHSWPWTFGGGTKLEIK
B9: L9G7 (antibody, human IgG1, V domains shown)
VH: QIQLVQSGAEVKKPGASVKVSCKASGYTFTSYGISWVRQAPGQGLEWMGWISAYNGNTNYAQKLQGRVTMTTDTSTSTAYMELRSLRSDDTAVYYCARTYYDILTGYYYYGMDVWGQGTTVTVSS
VL: EIVLTQSPGTLSLSPGERATLSCRTSQSVDTYLAWYQQKPGQAPRLLIYDASNRATGIPARFSGSGSGTDFTLTISSLEPEDFAVYYCQQRSNWPLTFGGGTKVEIK
B10: 20D1B6E9E5 (antibody, V domains shown)
VH: EVQLQQSVAELVRPGASVKLSCTASDFNIKNTYIHWVKQRPEQGLEWIGRIDPVNGNTKYAPKFQDKATIIVDTYSNTAYLQLSSLASEDTAVYYCARWPITTIVATDWYFDVWGTGTTVTVSS
VL: DVLMTQTQLALPVRLGEQASISCRSSQSIVNSNGNTYLEWYLQKPGQSPKLLIYKVSNRFSGVPDRFSGSGSGTDFTLKISRVEAEDLGVYYCFQGSHVPWTFGGGTKLEIK
B11: 78C11D2D12 (antibody, V domains shown)
VH: QVQLQQSGAELVRPGTSVKISCKASGYAFTNYWLGWVKQRPGHGLEWIGDIYPGSGNTYYNEKFKGKATLTADKSSSTAYMQLSSLTSEDSAVFFCAAYLYAMDYWGQGTSVTVSS
VL: QIVLTQSPAIMSASPGEKVTITCSASSSVSYMHWFQQKPGTSPKLWIYSASNLASGVPARFSGSGSGTSYSLTISRMEAEDAATYYCQQRGSYPFTFGSGTKLEIK
B12: 89A2G5E7 (antibody, V domains shown)
VH: QVQLKESGPGLVAPSQSLSITCTVSGLSLNSHDISWIRQPPGKGLEWLGVIWSGGGTKYNSAFMSRLSISKDNSKSQVFLKMNSLHTDDTAIYYCVRTPSMITYSAMDYWGQGTSVTVSS
VL: EIVLTQSPALMAASPGEKVTITCSVSSSISSRNLHWYQQKSQTSPKAWIHATSNLASGVPVRFSGSGSGTSYSLTISSMEAEDAATYYCQQWSSYPLTFGSGTKLEIK

What follows are binders tested against human BLyS (full length, arginine 132 mutated to histidine) on CHO-K1 cells (human) (UniProt Q9Y275) (assay: FACS on CHO-K1-hBLyS cells).

binding | Binder
binds | B1
binds | B2
binds | B3
binds | B4
binds | B5
binds | B6
binds | B7
binds | B8
binds | B9
binds | B10
binds | B11
binds | B12

These binders were tested against cynomolgus BLyS (full length, arginine 132 mutated to histidine) on CHO-K1 cells (cynomolgus) (assay: FACS on CHO-K1-cynoBLyS cells).

binding | Binder
binds | B1
binds | B2
binds | B3
binds | B4
binds | B5
binds | B6
binds | B7
binds | B8
binds | B9
binds | B10
binds | B11
binds | B12

The binders below were run against human BLyS (full length, arginine 132 mutated to histidine) on CHO-K1 cells (human) (UniProt Q9Y275) (assay: flow cytometry (FACS) on CHO-K1 hBLyS cells, Alexa 488 secondary antibody).

binding | Binder
binds | B1
binds | B2
binds | B3
binds | B4
binds | B5
binds | B6
binds | B7
binds | B8
binds | B9
binds | B10
binds | B11
binds | B12

Each binder was assayed against mouse BLyS protein (mouse, UniProt Q9WU72 69-309) (assay: told from the mouse B lymphocyte proliferation assay with mouse BLyS (functional)).

binding | Binder
binds | B9

What follows are binders tested against cynomolgus BLyS (full length, arginine 132 mutated to histidine) on CHO-K1 cells (cynomolgus) (assay: flow cytometry (FACS) on CHO-K1 cynoBLyS cells, Alexa 488 secondary antibody).

binding | Binder
binds | B1
binds | B2
binds | B3
binds | B4
binds | B5
binds | B6
binds | B7
binds | B8
binds | B9
binds | B10
binds | B11
binds | B12
